These are yes or no findings as the source states them, for the method shown. In cells and extracts the contact can be indirect. Some binding calls cover weakened binding; strength is not graded here. Each block holds one binder with its values, some of them ahead of it.
Target: Unc5B receptor (mouse, endogenous) (mouse (endogenous in mouse brain endothelial cells and mouse brain)) (UniProt Q8K1S3)
Assay: co-IP; Unc5B antibody (R&D, AF1006) or control IgG, protein A/G magnetic beads, RIPA buffer, overnight at 4 °C; lysate of cultured primary mouse brain microvascular endothelial cells; western blot

The chains behind the UniProt entries cited, without tags or fusion partners. Residues count along the entry.
UniProt Q8K1S3, residues 27-945: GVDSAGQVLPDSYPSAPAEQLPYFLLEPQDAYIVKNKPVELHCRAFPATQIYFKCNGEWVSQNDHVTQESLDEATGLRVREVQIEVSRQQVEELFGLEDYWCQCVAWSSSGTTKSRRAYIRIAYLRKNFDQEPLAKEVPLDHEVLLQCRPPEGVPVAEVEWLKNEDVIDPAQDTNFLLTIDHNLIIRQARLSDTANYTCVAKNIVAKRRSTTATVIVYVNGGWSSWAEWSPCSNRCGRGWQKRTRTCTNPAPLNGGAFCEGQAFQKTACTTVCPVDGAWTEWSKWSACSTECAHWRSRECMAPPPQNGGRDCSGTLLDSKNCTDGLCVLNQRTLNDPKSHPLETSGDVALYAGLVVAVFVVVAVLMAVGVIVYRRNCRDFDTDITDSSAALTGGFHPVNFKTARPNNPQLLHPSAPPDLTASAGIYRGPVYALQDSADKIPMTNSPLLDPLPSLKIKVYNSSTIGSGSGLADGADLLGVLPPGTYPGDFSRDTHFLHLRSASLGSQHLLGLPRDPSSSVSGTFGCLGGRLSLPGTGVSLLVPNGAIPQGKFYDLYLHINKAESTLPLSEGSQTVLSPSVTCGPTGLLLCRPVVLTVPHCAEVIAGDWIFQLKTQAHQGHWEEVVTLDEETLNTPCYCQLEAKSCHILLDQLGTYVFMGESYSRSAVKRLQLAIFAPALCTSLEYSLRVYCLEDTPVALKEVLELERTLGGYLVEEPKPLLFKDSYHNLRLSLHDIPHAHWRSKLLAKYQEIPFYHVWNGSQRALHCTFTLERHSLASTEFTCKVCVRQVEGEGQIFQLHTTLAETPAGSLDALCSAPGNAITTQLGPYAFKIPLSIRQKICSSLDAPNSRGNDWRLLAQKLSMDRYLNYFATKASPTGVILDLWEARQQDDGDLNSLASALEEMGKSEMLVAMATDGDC

binding: binds
B1: GPR124 (Wnt co-receptor; mouse, endogenous) (receptor, UniProt Q91ZV8 34-1336)
chain: APGCPVPIRGCKCSGERPKGLSGGAHNPARRRVVCGGGDLPEPPDPGLLPNGTITLLLSNNKITGLRNGSFLGLSLLEKLDLRSNVISTVQPGAFLGLGELKRLDLSNNRIGCLTSETFQGLPRLLRLNISGNIYSSLQPGVFDELPALKIVDFGTEFLTCDCRLRWLLPWARNHSLQLSERTLCAYPSALHAHALSSLQESQLRCEGALELHTHYLIPSLRQVVFQGDRLPFQCSASYLGNDTRIHWYHNGAPMESDEQAGIVLAENLIHDCTFITSELTLSHIGVWASGEWECSVSTVQGNTSKKVEIVVLETSASYCPAERVTNNRGDFRWPRTLAGITAYQSCLQYPFTSVPLSGGAPGTRASRRCDRAGRWEPGDYSHCLYTNDITRVLYTFVLMPINASNALTLAHQLRVYTAEAASFSDMMDVVYVAQMIQKFLGYVDQIKELVEVMVDMASNLMLVDEHLLWLAQREDKACSGIVGALERIGGAALSPHAQHISVNSRNVALEAYLIKPHSYVGLTCTAFQRREVGVSGAQPSSVGQDAPVEPEPLADQQLRFRCTTGRPNISLSSFHIKNSVALASIQLPPSLFSTLPAALAPPVPPDCTLQLLVFRNGRLFRSHGNNTSRPGAAGPGKRRGVATPVIFAGTSGCGVGNLTEPVAVSLRHWAEGADPMAAWWNQDGPGGWSSEGCRLRYSQPNVSSLYCQHLGNVAVLMELNAFPREAGGSGAGLHPVVYPCTALLLLCLFSTIITYILNHSSIHVSRKGWHMLLNLCFHMAMTSAVFVGGVTLTNYQMVCQAVGITLHYSSLSSLLWMGVKARVLHKELSWRAPPLEEGEAAPPGPRPMLRFYLIAGGIPLIICGITAAVNIHNYRDHSPYCWLVWRPSLGAFYIPVALILPITWIYFLCAGLHLRSHVAQNPKQGNRISLEPGEELRGSTRLRSSGVLLNDSGSLLATVSAGVGTPAPPEDGDGVYSPGVQLGALMTTHFLYLAMWACGALAVSQRWLPRVVCSCLYGVAASALGLFVFTHHCARRRDVRASWRACCPPASPSASHVPARALPTATEDGSPVLGEGPASLKSSPSGSSGRAPPPPCKLTNLQVAQSQVCEASVAARGDGEPEPTGSRGSLAPRHHNNLHHGRRVHKSRAKGHRAGETGGKSRLKALRAGTSPGAPELLSSESGSLHNSPSDSYPGSSRNSPGDGLPLEGEPMLTPSEGSDTSAAPIAETGRPGQRRSASRDNLKGSGSALERESKRRSYPLNTTSLNGAPKGGKYEDASVTGAEAIAGGSMKTGLWKSETTV

binding: binds
B2: Frizzled4 (mouse, endogenous) (receptor, UniProt Q61088 37-537)
chain: FGDEEERRCDPIRIAMCQNLGYNVTKMPNLVGHELQTDAELQLTTFTPLIQYGCSSQLQFFLCSVYVPMCTEKINIPIGPCGGMCLSVKRRCEPVLREFGFAWPDTLNCSKFPPQNDHNHMCMEGPGDEEVPLPHKTPIQPGEECHSVGSNSDQYIWVKRSLNCVLKCGYDAGLYSRSAKEFTDIWMAVWASLCFISTTFTVLTFLIDSSRFSYPERPIIFLSMCYNIYSIAYIVRLTVGRERISCDFEEAAEPVLIQEGLKNTGCAIIFLLMYFFGMASSIWWVILTLTWFLAAGLKWGHEAIEMHSSYFHIAAWAIPAVKTIVILIMRLVDADELTGLCYVGNQNLDALTGFVVAPLFTYLVIGTLFIAAGLVALFKIRSNLQKDGTKTDKLERLMVKIGVFSVLYTVPATCVIACYFYEISNWALFRYSADDSNMAVEMLKIFMSLLVGITSGMWIWSAKTLHTWQKCSNRLVNSGKVKREKRGNGWVKPGKGNETVV

From PMC8897508
